Experimental data: patent publication EP1484405A1
Results are given in words; binding and its absence hold for the method and conditions named. Some entries that bind do so weakly or less than the wild type.

Amino acid sequences for entries named in this document (tags omitted). A change or cut given only in a name is not applied to a line headed by its entry.
UniProt P0A511: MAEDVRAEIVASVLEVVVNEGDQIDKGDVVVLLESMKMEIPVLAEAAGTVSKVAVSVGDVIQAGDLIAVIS

Biological target: native CFP7A of M. tuberculosis (Mycobacterium tuberculosis) (UniProt P0A511)
Assay: streptavidin blot after SDS-PAGE and transfer to nitrocellulose

alkaline phosphatase conjugated streptavidin (from UniProt P22629 37-163)
binding: binds
